Test [1] concerns the target Full-length Arabidopsis thaliana AKT1 with N-terminal Flag (pCAG, HEK293F), co-expressed with AtKC1 (Arabidopsis thaliana) (UniProt Q38998). The test can be described thus: cryo-EM structure; single-particle cryo-EM of the AKT1-AtKC1 complex co-expressed in HEK293F cells and purified by Flag then Strep affinity; 25 mM Tris-HCl pH 7.4, 150 mM KCl, 0.06% digitonin; both purified.

Sequences of proteins named here, by UniProt entry; tags and fusion partners are left off.
UniProt Q38998: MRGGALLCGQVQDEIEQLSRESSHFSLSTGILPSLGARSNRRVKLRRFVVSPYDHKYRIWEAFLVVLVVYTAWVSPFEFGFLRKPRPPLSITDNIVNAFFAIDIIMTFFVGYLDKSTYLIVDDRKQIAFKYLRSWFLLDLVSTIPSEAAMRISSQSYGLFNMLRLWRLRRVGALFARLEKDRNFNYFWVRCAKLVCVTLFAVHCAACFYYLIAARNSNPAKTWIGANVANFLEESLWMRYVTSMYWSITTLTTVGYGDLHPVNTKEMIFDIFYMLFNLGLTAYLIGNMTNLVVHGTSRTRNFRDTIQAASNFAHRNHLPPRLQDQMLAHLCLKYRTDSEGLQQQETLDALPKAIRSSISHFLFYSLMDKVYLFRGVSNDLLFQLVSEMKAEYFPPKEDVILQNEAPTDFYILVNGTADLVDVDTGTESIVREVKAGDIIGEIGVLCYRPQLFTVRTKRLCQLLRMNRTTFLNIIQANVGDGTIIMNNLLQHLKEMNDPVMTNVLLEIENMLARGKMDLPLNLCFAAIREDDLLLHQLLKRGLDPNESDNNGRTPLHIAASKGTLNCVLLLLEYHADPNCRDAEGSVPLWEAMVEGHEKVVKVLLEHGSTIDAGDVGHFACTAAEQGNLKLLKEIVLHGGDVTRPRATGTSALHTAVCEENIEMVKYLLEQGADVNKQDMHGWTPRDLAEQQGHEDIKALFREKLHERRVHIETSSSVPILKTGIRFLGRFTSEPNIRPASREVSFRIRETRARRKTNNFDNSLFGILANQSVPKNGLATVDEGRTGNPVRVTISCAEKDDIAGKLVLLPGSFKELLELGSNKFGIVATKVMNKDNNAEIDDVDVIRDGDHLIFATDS
UniProt Q8GXE6: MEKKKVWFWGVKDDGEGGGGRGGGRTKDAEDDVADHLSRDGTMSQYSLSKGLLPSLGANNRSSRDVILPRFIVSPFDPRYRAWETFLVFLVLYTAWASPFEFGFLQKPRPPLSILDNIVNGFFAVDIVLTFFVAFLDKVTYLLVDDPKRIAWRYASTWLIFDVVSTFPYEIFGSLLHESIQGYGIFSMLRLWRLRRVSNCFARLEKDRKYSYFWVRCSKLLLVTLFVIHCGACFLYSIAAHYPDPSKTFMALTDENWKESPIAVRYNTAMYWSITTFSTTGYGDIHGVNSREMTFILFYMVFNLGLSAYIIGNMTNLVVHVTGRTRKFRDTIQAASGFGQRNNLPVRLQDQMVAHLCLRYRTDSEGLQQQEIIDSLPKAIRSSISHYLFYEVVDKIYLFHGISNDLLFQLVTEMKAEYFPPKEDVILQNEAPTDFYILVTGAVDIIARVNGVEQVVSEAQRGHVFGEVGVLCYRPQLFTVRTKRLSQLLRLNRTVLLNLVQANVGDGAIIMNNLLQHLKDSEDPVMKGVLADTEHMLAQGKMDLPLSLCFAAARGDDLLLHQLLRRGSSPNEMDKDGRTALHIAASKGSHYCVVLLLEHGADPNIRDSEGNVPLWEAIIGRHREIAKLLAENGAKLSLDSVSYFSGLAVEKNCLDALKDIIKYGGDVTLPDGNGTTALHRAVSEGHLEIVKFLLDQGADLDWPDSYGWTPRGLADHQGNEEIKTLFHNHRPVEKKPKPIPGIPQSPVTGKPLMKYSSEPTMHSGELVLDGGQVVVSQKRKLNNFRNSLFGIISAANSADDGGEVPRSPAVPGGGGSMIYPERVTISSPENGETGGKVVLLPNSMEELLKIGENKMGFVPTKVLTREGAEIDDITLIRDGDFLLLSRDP
UniProt P92960: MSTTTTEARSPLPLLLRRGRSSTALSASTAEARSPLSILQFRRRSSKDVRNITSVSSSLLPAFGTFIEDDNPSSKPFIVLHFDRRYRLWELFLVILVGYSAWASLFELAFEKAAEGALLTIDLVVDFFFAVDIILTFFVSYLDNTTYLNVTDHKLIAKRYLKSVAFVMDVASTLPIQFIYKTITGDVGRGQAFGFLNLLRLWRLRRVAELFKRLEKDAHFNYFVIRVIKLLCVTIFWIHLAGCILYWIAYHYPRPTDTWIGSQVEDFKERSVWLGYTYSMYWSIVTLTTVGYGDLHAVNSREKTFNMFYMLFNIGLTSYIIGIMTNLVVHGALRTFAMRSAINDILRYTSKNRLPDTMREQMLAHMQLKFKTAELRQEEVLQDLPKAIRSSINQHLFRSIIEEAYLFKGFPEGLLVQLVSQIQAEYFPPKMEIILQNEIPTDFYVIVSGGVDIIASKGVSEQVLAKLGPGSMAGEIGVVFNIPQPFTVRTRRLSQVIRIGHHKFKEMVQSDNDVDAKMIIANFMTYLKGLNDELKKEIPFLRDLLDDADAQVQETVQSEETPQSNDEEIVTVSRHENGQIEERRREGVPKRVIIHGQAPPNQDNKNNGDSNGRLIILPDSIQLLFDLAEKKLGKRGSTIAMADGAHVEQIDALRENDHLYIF

Test [2] concerns the target AKT6 (SPIK), Arabidopsis potassium channel (Arabidopsis) (UniProt Q8GXE6). Put plainly: cryo-EM structure; cryo-EM, 2D classification only (preliminary analysis); no map or model reported; both purified.

No constants are given. Whether binding was seen depends on the method and setting. Some results given as binding are weak or reduced against the parent protein; the word gives no strength.

Regarding “Full-length AtKC1, potassium channel alpha-subunit, with N-terminal Twin-Strep (pCAG, HEK293F) (from UniProt P92960 1-662)”, in test [1], the binding result is “binds”.
Consider “AKT6 (SPIK), Arabidopsis potassium channel (from UniProt Q8GXE6 1-888)”, for which the binding entry in test [2] is listed as “binds”.

The record behind these values is PMC9515098.
